Drawing on the supplement of paper PMC12819154, “High-throughput peptide-centric local stability assay extends protein–ligand identification to membrane proteins, tissues and bacteria” (Nature Structural & Molecular Biology, 2025), this text covers log2 fold change for eleven targets.

By UniProt entry, the sequences of proteins in these tests, tags left out. Where a name states a change or a piece, a line headed by the entry shows the natural chain unless it says otherwise.
UniProt Q8BKX6: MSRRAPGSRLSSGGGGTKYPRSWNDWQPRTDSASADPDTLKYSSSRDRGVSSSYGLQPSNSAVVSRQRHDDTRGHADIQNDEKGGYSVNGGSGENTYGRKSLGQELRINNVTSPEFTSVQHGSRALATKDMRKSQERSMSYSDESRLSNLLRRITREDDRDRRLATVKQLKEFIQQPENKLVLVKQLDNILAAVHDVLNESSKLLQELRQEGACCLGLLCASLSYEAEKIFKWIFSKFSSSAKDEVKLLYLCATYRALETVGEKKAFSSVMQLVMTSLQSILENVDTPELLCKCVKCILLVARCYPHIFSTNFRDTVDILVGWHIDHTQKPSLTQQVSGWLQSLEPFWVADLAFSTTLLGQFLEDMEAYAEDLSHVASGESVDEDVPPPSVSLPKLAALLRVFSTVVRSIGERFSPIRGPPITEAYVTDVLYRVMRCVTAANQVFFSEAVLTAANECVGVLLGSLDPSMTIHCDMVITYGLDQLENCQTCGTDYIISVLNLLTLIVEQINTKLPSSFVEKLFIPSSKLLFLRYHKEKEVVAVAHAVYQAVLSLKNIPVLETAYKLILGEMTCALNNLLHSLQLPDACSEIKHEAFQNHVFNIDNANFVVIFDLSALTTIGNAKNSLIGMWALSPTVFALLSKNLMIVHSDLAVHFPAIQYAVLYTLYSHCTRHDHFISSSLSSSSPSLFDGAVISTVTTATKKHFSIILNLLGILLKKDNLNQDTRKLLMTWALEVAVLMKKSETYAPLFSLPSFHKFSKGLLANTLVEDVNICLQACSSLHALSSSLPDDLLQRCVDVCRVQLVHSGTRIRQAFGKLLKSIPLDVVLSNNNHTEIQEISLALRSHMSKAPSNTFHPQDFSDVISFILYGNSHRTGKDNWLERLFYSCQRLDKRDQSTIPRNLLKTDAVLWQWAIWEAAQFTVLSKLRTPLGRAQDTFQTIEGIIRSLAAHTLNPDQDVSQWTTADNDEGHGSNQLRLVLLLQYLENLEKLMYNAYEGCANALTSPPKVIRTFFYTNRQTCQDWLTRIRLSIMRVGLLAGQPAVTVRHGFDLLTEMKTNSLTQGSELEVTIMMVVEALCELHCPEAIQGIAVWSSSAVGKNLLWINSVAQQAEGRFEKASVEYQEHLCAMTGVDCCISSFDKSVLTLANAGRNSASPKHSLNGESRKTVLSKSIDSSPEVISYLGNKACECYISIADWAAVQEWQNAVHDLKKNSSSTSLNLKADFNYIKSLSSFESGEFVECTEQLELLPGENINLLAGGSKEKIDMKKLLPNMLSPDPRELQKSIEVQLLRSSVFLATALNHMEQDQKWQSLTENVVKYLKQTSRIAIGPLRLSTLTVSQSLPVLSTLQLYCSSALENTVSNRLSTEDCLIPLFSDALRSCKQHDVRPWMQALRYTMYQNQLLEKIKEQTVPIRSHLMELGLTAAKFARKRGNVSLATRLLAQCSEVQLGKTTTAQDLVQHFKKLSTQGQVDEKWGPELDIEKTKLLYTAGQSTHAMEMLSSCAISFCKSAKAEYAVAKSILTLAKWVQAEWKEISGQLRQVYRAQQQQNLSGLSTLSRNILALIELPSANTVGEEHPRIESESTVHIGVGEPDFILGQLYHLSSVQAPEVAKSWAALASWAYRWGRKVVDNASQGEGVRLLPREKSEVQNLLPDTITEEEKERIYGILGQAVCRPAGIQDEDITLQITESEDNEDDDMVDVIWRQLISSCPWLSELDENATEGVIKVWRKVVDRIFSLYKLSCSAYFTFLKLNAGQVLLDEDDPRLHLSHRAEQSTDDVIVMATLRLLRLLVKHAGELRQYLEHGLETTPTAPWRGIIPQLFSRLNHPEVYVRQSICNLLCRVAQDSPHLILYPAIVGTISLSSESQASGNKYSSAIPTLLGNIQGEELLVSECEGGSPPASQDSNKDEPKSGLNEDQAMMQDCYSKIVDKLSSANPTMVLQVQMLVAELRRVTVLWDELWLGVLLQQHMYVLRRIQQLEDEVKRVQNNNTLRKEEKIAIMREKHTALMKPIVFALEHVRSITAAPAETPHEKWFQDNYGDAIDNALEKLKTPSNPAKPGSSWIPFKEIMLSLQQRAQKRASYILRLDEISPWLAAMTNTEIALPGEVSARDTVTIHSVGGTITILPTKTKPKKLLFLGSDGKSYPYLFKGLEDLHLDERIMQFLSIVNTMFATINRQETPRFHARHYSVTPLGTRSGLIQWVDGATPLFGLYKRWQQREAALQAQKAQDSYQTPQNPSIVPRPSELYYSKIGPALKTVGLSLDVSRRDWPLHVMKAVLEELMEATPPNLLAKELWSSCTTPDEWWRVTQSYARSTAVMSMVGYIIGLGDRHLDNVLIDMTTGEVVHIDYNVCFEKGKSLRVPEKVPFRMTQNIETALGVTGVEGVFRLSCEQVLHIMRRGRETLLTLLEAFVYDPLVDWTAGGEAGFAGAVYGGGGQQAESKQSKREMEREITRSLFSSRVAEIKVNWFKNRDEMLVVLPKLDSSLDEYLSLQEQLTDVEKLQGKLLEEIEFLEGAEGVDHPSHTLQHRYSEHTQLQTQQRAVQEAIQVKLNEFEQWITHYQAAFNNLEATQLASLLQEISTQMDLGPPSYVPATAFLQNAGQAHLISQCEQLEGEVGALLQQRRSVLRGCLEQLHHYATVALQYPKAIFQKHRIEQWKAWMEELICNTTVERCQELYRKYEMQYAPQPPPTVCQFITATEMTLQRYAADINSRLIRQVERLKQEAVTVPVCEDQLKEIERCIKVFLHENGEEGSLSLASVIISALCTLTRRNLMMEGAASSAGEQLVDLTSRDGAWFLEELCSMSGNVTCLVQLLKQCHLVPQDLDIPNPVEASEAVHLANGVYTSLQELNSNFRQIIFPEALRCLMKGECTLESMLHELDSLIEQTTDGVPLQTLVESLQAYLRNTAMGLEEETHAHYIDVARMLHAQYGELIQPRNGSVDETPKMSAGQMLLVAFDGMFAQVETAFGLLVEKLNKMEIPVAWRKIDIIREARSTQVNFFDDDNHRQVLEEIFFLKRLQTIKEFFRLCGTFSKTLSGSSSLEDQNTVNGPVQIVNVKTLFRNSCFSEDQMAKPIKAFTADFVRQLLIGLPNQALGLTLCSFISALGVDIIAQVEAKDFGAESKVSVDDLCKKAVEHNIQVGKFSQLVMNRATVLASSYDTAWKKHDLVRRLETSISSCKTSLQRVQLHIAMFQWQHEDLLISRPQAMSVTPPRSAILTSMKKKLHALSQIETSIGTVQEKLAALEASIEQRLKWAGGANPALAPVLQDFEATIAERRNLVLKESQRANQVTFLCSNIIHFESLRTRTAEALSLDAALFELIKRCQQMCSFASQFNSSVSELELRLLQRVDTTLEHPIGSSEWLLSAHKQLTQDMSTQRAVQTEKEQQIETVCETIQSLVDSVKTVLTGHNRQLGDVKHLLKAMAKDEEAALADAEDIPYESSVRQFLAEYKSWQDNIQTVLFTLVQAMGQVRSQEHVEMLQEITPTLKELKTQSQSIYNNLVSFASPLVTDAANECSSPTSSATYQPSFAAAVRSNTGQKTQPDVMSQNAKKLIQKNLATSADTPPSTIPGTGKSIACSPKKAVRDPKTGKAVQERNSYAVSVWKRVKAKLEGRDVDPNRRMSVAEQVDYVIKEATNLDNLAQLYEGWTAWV
UniProt Q8BML9: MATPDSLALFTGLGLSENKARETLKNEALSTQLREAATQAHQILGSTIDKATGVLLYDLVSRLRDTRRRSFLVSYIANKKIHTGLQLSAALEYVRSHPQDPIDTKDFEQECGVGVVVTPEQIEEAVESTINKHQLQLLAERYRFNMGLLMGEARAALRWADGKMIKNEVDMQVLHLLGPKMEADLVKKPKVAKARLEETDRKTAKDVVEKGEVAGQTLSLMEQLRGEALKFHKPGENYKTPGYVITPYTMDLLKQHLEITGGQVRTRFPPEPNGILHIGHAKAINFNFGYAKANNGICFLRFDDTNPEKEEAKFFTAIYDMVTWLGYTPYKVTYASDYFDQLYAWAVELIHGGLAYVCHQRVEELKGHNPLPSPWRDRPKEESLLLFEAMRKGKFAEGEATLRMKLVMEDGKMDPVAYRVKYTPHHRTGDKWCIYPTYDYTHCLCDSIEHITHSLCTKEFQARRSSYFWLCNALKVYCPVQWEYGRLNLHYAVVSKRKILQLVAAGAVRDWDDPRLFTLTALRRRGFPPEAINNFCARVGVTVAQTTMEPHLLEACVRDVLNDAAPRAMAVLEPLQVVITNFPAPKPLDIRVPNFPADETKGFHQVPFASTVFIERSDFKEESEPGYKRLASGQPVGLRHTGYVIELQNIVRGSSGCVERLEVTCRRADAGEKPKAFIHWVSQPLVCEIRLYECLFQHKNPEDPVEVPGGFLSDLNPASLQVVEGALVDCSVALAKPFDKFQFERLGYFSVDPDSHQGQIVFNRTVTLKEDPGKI
UniProt Q8BUP8: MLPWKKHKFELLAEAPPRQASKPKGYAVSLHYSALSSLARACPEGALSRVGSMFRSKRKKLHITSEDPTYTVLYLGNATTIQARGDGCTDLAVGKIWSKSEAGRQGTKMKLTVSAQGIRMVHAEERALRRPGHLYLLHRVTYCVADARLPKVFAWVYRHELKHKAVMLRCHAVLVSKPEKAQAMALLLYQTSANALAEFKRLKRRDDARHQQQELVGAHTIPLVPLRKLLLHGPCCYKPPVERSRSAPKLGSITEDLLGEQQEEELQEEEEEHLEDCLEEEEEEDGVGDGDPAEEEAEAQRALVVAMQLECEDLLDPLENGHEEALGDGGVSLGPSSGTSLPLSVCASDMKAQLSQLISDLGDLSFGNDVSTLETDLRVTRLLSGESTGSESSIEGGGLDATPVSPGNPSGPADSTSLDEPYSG
UniProt Q8BKJ9: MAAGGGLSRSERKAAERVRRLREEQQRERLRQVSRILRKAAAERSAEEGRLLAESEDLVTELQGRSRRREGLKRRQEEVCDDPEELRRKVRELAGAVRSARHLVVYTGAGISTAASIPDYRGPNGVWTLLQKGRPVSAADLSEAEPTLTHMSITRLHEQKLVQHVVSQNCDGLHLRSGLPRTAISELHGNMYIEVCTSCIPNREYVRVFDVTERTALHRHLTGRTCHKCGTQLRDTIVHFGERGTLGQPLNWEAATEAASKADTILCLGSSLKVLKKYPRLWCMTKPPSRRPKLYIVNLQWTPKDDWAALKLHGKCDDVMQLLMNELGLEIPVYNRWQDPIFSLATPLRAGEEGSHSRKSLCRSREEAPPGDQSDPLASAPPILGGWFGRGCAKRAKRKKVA
UniProt Q8BIQ5: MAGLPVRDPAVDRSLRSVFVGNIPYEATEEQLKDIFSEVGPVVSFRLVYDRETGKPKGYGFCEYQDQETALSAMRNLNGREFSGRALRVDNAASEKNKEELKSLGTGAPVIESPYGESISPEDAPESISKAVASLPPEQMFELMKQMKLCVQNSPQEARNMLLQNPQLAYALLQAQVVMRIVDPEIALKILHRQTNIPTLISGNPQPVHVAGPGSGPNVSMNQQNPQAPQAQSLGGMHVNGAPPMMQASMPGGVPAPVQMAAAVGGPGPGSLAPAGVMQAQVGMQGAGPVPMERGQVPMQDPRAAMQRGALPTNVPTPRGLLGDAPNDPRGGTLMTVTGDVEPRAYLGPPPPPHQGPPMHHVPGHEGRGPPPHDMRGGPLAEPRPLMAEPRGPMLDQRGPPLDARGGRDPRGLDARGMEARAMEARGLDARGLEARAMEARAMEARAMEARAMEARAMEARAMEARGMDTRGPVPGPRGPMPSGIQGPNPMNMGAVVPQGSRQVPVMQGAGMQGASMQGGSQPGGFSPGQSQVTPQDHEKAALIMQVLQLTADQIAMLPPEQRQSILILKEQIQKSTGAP
UniProt Q8BQH4: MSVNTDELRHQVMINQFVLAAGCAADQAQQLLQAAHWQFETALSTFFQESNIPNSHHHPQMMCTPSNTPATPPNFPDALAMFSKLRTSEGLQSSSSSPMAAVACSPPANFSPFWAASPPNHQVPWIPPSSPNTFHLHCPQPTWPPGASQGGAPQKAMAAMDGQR
UniProt Q8BQX5: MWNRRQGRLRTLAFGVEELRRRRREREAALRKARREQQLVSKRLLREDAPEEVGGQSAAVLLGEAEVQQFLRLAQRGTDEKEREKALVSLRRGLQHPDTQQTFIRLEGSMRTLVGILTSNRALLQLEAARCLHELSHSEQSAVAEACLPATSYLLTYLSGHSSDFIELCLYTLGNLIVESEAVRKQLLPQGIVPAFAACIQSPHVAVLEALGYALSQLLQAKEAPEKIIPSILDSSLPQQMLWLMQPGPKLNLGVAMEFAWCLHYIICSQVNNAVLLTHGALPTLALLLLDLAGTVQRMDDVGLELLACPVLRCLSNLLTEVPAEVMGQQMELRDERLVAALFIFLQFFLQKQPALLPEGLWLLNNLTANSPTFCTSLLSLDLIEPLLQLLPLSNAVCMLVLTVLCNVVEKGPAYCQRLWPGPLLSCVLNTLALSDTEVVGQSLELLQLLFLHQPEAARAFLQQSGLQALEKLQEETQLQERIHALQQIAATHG

This is one part of the list. Most entries show no effect beyond the scatter of the controls.

Compound in this assay: CN[C@@H]1C[C@H]2O[C@@](C)([C@@H]1OC)n1c3ccccc3c3c4c(c5c6ccccc6n2c5c31)C(=O)NC4 [staurosporine]
The assay is described as follows: log2 fold change of tryptic peptide abundance, ligand vs vehicle (limited proteolysis) (log2 ratio); higher = more trypsin-susceptible (destabilized). The settings on record: ligand concentration: 20 uM; sample: mouse liver crude lysate; replicate design: treated separately.
In the case of “UniProt Q8BHY8 (peptide sequence: ILPDVNLGK, peptide start residue: 714)”, the log2 fold change is -0.169.
To “UniProt Q8BKX6 (peptide sequence: SHLMELGLTAAK, peptide start residue: 1417)” belongs 0.327; to “UniProt Q8BML9 (peptide sequence: LASGQPVGLR, peptide start residue: 630)”, -0.862.
The value for “UniProt Q8BK64 (peptide sequence: DASNWSTEK, peptide start residue: 31)” was -0.172; that for “UniProt Q8BJL1 (peptide sequence: ATDKISEPR, peptide start residue: 146)” was -0.35; that for “UniProt Q8BUP8 (peptide sequence: HQQQELVGAHTIPLVPLRK, peptide start residue: 210)” was 0.3.
Regarding “UniProt Q8BTT6 (peptide sequence: ANAQVLANNSR, peptide start residue: 337)”, the log2 fold change came out at 0.71.
To “UniProt Q8BKJ9 (peptide sequence: GPNGVWTLLQK, peptide start residue: 122)” belongs 0.288; to “UniProt Q8BIQ5 (peptide sequence: GALPTNVPTPR, peptide start residue: 309)”, 0.113; to “UniProt Q8BQH4 (peptide sequence: AMAAMDGQR, peptide start residue: 156)”, -0.0259.
The value for “UniProt Q8BQX5 (peptide sequence: ALLQLEAAR, peptide start residue: 122)” was -0.349.
